Literature values as cited in patent publication US20100239665A1 (priority 2007, published 2010).
At least one structure is not confirmed: it was looked up by name or label, or the drawing left a doubt.

Legend:
Meniere's disease = Meniere's disease patients for whom first-line medical management had failed
cluster headache = details: total daily doses of 60 to 120 milligrams

COCCOC(=O)C1=C(C)NC(C)=C(C(=O)OC(C)C)C1c1cccc([N+](=O)[O-])c1 (centres unmarked) [Nimodipine]
patients with successful control of vertigo and hearing improvement or stabilisation (Meniere's disease): two-thirds of patients | effectiveness in the treatment of cluster headache (cluster headache): effective
